In article doi:10.1101/2021.09.15.460490:
No constants are given. Whether binding was seen depends on the method and setting. In cells and extracts the contact can be indirect. Some entries that bind do so weakly or less than the wild type. For some assays here: Sequences can lack the tags named with a protein. Blank lines part the entries; values can stand above or below the molecule they belong to.

By UniProt entry, the sequences of proteins in these tests, tags left out. Where a name states a change or a piece, a line headed by the entry shows the natural chain unless it says otherwise.
UniProt Q13153: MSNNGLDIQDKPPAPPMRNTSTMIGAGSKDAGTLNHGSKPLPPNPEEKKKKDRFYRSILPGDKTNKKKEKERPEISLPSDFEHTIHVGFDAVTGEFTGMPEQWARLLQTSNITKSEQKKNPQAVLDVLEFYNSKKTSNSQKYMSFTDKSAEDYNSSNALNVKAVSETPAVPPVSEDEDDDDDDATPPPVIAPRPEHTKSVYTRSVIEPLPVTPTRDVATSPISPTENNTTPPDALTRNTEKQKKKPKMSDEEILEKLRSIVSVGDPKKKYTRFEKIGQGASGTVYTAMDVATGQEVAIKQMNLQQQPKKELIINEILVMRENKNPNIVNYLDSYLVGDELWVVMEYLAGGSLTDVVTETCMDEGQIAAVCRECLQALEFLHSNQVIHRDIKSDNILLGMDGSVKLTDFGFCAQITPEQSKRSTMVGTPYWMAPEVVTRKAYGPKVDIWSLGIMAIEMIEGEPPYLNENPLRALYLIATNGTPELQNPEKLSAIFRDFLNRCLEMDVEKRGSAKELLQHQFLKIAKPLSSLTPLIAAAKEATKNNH
UniProt Q9Y5S2: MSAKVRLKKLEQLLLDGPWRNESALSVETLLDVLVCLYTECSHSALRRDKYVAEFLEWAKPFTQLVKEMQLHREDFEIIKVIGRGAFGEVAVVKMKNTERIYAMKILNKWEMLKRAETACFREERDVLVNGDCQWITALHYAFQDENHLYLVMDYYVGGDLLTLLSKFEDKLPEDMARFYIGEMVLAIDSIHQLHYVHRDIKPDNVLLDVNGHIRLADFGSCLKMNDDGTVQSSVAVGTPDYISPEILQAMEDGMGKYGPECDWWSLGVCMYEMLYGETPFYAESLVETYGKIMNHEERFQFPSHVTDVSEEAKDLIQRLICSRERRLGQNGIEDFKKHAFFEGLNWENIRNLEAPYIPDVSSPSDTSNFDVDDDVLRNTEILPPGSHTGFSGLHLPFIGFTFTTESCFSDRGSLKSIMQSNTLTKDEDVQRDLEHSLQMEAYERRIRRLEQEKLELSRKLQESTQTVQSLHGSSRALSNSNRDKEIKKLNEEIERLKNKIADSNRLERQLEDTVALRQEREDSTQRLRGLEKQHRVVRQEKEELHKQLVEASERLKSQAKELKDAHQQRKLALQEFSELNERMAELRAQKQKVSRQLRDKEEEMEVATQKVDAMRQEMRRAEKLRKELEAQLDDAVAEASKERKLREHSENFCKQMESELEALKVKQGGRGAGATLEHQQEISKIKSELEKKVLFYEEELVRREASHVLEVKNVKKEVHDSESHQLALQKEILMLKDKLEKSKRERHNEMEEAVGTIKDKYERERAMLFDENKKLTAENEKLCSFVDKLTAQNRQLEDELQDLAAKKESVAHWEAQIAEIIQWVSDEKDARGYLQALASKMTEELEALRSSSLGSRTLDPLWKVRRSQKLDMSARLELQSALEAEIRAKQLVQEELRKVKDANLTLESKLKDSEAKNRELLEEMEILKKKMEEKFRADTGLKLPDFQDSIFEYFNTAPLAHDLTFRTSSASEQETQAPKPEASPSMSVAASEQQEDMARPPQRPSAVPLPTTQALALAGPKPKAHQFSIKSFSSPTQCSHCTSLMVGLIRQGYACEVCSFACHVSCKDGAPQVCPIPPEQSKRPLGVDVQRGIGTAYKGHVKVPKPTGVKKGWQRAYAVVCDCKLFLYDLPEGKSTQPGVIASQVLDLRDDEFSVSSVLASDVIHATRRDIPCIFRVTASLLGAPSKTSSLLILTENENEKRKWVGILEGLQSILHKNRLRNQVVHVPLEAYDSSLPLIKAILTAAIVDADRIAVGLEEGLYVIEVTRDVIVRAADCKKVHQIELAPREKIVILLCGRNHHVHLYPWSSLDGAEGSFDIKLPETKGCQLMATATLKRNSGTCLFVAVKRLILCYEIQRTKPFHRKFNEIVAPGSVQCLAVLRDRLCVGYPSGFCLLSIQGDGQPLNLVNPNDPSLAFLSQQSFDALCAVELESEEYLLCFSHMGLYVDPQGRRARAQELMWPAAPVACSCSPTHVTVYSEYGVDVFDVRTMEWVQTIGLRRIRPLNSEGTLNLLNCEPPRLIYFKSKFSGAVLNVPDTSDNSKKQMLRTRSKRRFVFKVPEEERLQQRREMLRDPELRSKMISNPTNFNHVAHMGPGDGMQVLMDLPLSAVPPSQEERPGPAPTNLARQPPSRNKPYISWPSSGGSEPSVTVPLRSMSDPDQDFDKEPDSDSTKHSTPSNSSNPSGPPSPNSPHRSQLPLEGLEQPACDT
UniProt Q13464: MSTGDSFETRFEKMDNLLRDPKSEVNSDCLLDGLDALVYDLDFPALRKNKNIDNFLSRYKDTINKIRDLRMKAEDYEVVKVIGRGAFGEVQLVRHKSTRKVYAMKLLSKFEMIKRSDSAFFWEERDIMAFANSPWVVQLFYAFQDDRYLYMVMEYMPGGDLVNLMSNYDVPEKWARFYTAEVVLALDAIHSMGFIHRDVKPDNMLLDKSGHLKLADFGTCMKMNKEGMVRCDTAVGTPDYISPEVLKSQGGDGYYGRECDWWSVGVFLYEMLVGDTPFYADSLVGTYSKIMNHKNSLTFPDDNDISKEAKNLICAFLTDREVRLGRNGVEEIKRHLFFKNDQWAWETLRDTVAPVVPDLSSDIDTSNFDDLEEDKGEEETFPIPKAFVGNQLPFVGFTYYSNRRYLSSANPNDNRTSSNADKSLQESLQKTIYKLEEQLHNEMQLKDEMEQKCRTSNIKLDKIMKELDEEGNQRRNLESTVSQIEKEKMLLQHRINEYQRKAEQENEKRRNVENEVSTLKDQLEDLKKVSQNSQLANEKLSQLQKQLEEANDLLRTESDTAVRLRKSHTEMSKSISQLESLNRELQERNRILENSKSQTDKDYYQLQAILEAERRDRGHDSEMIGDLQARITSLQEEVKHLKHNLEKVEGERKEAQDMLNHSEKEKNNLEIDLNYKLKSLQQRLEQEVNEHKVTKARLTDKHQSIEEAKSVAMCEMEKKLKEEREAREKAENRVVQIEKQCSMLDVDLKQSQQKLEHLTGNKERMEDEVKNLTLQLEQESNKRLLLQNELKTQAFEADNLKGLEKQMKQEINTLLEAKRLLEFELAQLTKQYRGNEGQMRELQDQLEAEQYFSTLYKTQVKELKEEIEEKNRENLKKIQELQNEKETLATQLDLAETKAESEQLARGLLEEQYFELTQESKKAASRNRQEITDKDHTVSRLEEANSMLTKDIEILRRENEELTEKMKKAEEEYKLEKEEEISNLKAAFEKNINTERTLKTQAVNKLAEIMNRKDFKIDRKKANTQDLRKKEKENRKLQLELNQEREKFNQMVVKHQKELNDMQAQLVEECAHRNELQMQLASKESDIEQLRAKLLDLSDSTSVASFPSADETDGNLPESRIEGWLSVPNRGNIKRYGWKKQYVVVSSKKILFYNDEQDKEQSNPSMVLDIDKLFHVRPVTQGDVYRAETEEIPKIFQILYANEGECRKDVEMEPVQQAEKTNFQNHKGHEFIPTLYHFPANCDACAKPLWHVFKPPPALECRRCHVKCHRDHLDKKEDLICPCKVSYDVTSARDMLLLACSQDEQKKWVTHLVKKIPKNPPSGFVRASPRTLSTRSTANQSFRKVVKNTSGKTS
UniProt O75116: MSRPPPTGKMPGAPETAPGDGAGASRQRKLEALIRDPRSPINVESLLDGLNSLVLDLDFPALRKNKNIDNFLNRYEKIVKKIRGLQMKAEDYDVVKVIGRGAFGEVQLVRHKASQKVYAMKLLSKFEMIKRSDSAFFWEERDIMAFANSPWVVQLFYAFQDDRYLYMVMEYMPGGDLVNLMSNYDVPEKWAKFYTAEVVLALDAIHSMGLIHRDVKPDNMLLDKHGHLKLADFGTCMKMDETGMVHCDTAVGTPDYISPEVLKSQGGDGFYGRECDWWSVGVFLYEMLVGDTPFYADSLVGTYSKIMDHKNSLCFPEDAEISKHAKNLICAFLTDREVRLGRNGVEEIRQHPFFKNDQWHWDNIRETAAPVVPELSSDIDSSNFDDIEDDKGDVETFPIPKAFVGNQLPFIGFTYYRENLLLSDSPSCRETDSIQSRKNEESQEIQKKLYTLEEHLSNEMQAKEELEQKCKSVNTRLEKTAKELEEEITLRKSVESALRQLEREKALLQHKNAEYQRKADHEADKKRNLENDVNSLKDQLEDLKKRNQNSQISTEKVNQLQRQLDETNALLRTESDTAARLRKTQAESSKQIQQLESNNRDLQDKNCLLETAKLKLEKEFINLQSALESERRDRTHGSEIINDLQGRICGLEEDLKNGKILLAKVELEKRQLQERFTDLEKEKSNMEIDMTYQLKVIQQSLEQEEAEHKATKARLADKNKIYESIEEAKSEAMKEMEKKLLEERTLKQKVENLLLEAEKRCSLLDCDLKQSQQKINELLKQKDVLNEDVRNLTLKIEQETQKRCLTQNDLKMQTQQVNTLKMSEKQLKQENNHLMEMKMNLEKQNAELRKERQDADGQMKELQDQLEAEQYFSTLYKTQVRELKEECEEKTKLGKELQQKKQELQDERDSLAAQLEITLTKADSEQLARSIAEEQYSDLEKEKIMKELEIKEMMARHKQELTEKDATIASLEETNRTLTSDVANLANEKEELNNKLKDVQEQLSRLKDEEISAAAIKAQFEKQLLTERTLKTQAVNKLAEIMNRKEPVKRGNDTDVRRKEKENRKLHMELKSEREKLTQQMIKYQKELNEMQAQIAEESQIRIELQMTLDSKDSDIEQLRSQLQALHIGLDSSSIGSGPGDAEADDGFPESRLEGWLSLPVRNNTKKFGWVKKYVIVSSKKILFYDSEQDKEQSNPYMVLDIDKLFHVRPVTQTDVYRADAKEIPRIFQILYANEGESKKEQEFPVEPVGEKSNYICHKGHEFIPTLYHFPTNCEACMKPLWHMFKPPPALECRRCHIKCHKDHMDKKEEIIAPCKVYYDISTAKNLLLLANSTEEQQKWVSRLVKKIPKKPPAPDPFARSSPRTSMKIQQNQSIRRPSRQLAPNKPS
UniProt P61586: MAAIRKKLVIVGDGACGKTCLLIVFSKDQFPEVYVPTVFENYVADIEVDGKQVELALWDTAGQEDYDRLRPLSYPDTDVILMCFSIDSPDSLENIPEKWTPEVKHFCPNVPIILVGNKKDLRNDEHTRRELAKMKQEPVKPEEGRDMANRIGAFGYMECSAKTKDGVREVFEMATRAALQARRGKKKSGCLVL
UniProt P61026: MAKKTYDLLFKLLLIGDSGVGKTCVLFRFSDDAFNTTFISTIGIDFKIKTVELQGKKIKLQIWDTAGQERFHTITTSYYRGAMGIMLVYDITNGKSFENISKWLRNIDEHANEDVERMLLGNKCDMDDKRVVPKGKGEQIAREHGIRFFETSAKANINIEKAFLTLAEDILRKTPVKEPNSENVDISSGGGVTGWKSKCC

Key:
Assay in all cases: co-IP
FLAG-MICAL1 (human) = molecular target: T1, FLAG-MICAL1 (human) (UniProt Q8TDZ2)
T1 sequence: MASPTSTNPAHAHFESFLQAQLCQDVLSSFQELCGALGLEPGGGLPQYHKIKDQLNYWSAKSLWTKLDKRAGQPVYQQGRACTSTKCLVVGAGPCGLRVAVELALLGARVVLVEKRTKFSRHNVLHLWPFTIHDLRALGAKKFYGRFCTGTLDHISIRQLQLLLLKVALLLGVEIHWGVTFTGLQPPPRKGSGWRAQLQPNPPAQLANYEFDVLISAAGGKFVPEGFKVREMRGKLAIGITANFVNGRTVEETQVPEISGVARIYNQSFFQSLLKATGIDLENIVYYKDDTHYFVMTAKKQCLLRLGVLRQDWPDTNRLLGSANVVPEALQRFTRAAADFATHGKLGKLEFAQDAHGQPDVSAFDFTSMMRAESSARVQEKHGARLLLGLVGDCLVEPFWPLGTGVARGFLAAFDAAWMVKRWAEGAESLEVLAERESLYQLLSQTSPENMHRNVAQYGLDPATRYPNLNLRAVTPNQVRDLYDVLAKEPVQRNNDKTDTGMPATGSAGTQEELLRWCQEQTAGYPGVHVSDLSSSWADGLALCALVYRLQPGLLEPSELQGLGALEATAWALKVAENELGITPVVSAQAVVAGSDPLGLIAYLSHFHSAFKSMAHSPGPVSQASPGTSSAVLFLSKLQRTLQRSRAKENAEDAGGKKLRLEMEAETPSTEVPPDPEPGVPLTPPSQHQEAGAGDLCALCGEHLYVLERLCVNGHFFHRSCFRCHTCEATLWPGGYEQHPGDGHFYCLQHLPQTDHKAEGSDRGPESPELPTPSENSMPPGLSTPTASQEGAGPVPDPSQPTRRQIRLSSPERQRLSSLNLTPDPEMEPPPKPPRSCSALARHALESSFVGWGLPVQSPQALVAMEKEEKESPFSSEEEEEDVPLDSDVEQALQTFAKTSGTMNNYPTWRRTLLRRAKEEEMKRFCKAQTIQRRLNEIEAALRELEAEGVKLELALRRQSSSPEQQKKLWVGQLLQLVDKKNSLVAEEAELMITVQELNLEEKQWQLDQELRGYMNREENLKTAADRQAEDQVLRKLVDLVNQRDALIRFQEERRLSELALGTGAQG

myc-PAK1 = myc-PAK1 (UniProt Q13153)
myc-tagged MRCKα = myc-tagged MRCKα (UniProt Q5VT25)
myc-tagged MRCKβ = myc-tagged MRCKβ (UniProt Q9Y5S2)
myc-tagged ROCK1 = myc-tagged ROCK1 (UniProt Q13464)
myc-tagged ROCK2 = myc-tagged ROCK2 (UniProt O75116)
[1] = molecular target: myc-tagged constitutively-active RHOA Q63L (UniProt P61586)

- binding (FLAG-MICAL1 (human)): binds
Molecule: eGFP-RAB10 (from UniProt P61026 1-200)

- binding (myc-tagged MRCKα): no binding
- binding (myc-tagged MRCKβ): no binding
- binding (myc-tagged ROCK1): no binding
- binding (myc-tagged ROCK2): no binding
- binding [1]: no binding
B1: FLAG-MICAL1 (enzyme, UniProt Q8TDZ2 1-1067)
chain: T1 sequence

Second part, the molecule before the results:

Molecule: FLAG-MICAL1 C1 (830-1067 amino acids) (from UniProt Q8TDZ2 830-1067) (domain or fragment)
- binding (myc-PAK1): no binding

Molecule: FLAG-MICAL1 C2 (676-1067 amino acids) (from UniProt Q8TDZ2 676-1067) (domain or fragment)
- binding (myc-PAK1): no binding
